PubChem BioAssay AID1053208, Peter MacCallum Cancer Centre, 2014
Test: 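Find knock-downs that sensitise mouse osteosarcoma cells to doxorubicin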 (primary screen). Cell system: mouse osteosarcoma cells, early-passage culture from an engineered mouse model of fibroblastic bone tumour. Reagent: siRNA pool against mouse genes, 40 nM. Duration: about 120 h (48 h before drug, then 72 h with drug). Conditions: doxorubicin 100 nM for 72 h, roughly 30-40% inhibitory dose. Measured: 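Viability read as ATP luminescence after 72 h of 100 nM doxorubicin or none, duplicate wells averaged, scaled to non-targeting siRNA, then expressed as robust z-scores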. Reading the numbers: viability z-score with doxorubicin: higher = more viable cells under doxorubicin; viability z-score without drug: higher = more viable cells with knock-down alone. Call rule: 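Called active if knock-down leaves viability unchanged without drug (z within -2 to 2) but lowers it with doxorubicin (z at or under -2)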.
This is a random part of about 17,000 reagents tested. Over the whole deposit, 788 (4.7%) are marked active. 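Calls rest on z-score classes alone; an extra cut-off of viability at most 70% of control was not applied to them.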 Entries without a mark were called inactive. The numbers tell different reagents against one gene apart. Further read-outs or replicates are left out here. Reagent sequences are not shown.

Depletion of Nek5 resulted in: combined z-score class no change with or without drug; viability z-score with doxorubicin -1.46; viability z-score without drug -1.52.
Knock-down of Depdc1a resulted in: combined z-score class no change with or without drug; viability z-score with doxorubicin 0.9; viability z-score without drug 0.17.
Depletion of Gem resulted in: combined z-score class no change with or without drug; viability z-score with doxorubicin 0.56; viability z-score without drug 0.17.
For Armcx2 the deposit lists combined z-score class no change with or without drug; viability z-score with doxorubicin 0; viability z-score without drug 0.51.
Against Dynlrb2, the values are combined z-score class no change with or without drug; viability z-score with doxorubicin 1.01; viability z-score without drug 1.18.
Against A730013G03Rik, the entry reads combined z-score class no change with or without drug; viability z-score with doxorubicin 0; viability z-score without drug -1.01.
Against Tmem72, the values are combined z-score class no change with or without drug; viability z-score with doxorubicin 0.9; viability z-score without drug 1.35.
Depletion of Cdk20 resulted in: combined z-score class no change with or without drug; viability z-score with doxorubicin -0.22; viability z-score without drug -1.69.
Kdm1b scored combined z-score class no change with or without drug; viability z-score with doxorubicin 0.34; viability z-score without drug -0.17.
Against Or52r1c, the values are combined z-score class no change with or without drug; viability z-score with doxorubicin -0.22; viability z-score without drug -0.84.

Already shown: entries from further up.
Nek5: combined z-score class = no change with or without drug; viability z-score with doxorubicin = -1.46; viability z-score without drug = -1.52
Depdc1a: combined z-score class = no change with or without drug; viability z-score with doxorubicin = 0.9; viability z-score without drug = 0.17

Continued.
With knock-down of Mrpl55 the results were combined z-score class low cell count with and without drug; viability z-score with doxorubicin -2.25; viability z-score without drug -3.04.
With knock-down of Usp53 #1, the screen gave combined z-score class no change with or without drug; viability z-score with doxorubicin 0.11; viability z-score without drug 0.17.
Silencing of Usp53 #2 resulted in: combined z-score class no change with or without drug; viability z-score with doxorubicin 0; viability z-score without drug -0.67.
Depletion of Eef1e1 resulted in: combined z-score class low cell count with doxorubicin only (active); viability z-score with doxorubicin -2.02; viability z-score without drug -1.52.
Against Fpgs, the values are combined z-score class no change with or without drug; viability z-score with doxorubicin -0.67; viability z-score without drug -0.51.
Faah scored combined z-score class no change with or without drug; viability z-score with doxorubicin 1.24; viability z-score without drug -0.17.
Pcdh12 showed combined z-score class no change with or without drug; viability z-score with doxorubicin 0.45; viability z-score without drug 0.51.
After knock-down of Sumo1, the record shows combined z-score class no change with or without drug; viability z-score with doxorubicin 0.67; viability z-score without drug 0.51.
With knock-down of Ttc41 the results were combined z-score class no change with or without drug; viability z-score with doxorubicin 1.35; viability z-score without drug 0.51.
